For at least one entry, the source does not settle the construct or the ends of the probe.

The results in this text go back to PMC10992608.

In the data set the test system is HosA. Put plainly: EMSA. The conditions noted are these: no p-HBA, 0.1 uM DNA, 0-0.5 uM HosA; recombinant protein. A general note: Mobility shift assays separate free from complexed probe on a gel.

Take “TACTGAGCCATGTATCCAGGTCATTGCGTTCGTATACGAACAGTAGCTCTGACAGTTCCA / GTCAGAGCTACTGTTCGTATACGAAC [irregular dsDNA (60 nt HosA-F / 26 nt HosA-R)]”: the binding result is on record as “binds”.
